In the supplement of paper PMC5949888:
Most values lie at the floor of the assay. Slopes are relative: functional sequences can read slightly below zero.

Tested on: Saccharomyces cerevisiae PS128 hsf1 delta, HSF1(1-493) fusion
Assay: growth estimate (transactivation domain function in HSF1 fusion, heat-shock survival) (a.u. (slope of normalised read count over time)); higher = stronger growth at 37°C, i.e. more transactivation activity
Conditions: library: random library
Method: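 Random 60-nt DNA library encoding peptides of up to 20 aa, fused to the C-terminus of yeast HSF1 residues 1-493 (C-terminal TAD deleted) and expressed from the native HSF1 promoter on a CEN plasmid in hsf1-deleted S. cerevisiae PS128. Cells were selected at 37°C on -trp 5-FOA plates for 0, 2, 4, 6 and 8 days and amplicons were sequenced. Growth estimate is the slope of a robust linear fit of total-sum-normalised read counts (normalised to the first time point) over time, using at least 2 replicates. Sequences are classed functional (TAD activity) above a threshold of -0.13, set from stop-codon control sequences.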

Row | Substance | growth estimate
1 | HQTEDAAEVFADFLFLRNGC | < -0.25
2 | HQTRQGCRLSNVCLAAWRPL | < -0.25
3 | HQWKEPGECLQ | < -0.25
4 | HRAEVSDAIVEKRQLRQLGR | -0.176
5 | HRASVYLCLLRGWSSGWSTV | < -0.25
6 | HRCLRDLSPIEFESACNRKS | < -0.25
7 | HREGQRGGSQYGQGYVQRKS | -0.246
8 | HREREAPCS | < -0.25
9 | HRFGSTDNSLVGMLGVTGSI | < -0.25
10 | HRFPGLVALPVHYDHVCDPT | < -0.25
11 | HRGCTRAWTPQSLKRSRLLL | < -0.25
12 | HRGILTATVALQNQPGSLRL | < -0.25
13 | HRGPLLLPVRG | < -0.25
14 | HRGSAVQAERLKTPNAGSAQ | -0.246
15 | HRILSACLAWNVSSFLAVLL | < -0.25
16 | HRIWYSRAVGVIGEGLYNLP | < -0.25
17 | HRKRS | < -0.25
18 | HRLEHLDLVS | < -0.25
19 | HRLGWVQRTTLLLE | < -0.25
20 | HRLHIRLSAELAYNVGTRVP | < -0.25
21 | HRLSTESPNREF | < -0.25
22 | HRNAIVRDEVRCP | < -0.25
23 | HRNHQE | < -0.25
24 | HRNYGEACMQKQWLTVAACR | < -0.25

Row | Substance | growth estimate
25 | HRPTIMLMNIH | < -0.25
26 | HRPVPSNRTGKAGKDAIPSP | < -0.25
27 | HRQKSRAVERIKMPSRTRGR | < -0.25
28 | HRQTDGRTGATGFFHSSAPR | < -0.25
29 | HRQWLSFSIRMTRVNQYDQA | < -0.25
30 | HRRFCMSDNLFECPPFQSMG | < -0.25
31 | HRRGYPFLVTSRDSQFSARK | < -0.25
32 | HRRKSQYELVVHLFTVTFVQ | < -0.25
33 | HRRQVWFVSPEC | < -0.25
34 | HRRVLLGQPHLGLKWTPGRL | < -0.25
35 | HRSDSINSR | < -0.25
36 | HRSMIYLRRPMSRGAPCAYG | < -0.25
37 | HRSSAKPLGKNKDNSSTWMQ | < -0.25
38 | HRSSGVDLTSSDKRHP | < -0.25
39 | HRT | < -0.25
40 | HRTDLKGCEF | < -0.25
41 | HRTLFLDTCVRCSYRRPPNQ | < -0.25
42 | HRVFTVLGTHTILGSKTSRC | -0.248
43 | HRVRGRIRIDTN | -0.246
44 | HRVTRGPWEMSEIARALSKL | < -0.25
45 | HRYLLASGGSPEKASQGVLR | < -0.25
46 | HSGSQYRMFYKDARISILCP | < -0.25
47 | HSHDRVTRVS | < -0.25
48 | HSIGHLTQTPVALDNILYKR | < -0.25

Row | Substance | growth estimate
49 | HSLHVETDTKEAGSWHHILR | < -0.25
50 | HSP | < -0.25
51 | HSRAFSACIQIA | < -0.25
52 | HSRDDILDLVQRGMVWGM | < -0.25
53 | HSREAFWPLG | < -0.25
54 | HSRSARRLARPGTRNCRPCP | < -0.25
55 | HSSAQGEIYLGEVCNGGGPC | < -0.25
56 | HSSGGTLIGEALPVTLADRR | -0.245
57 | HSSLIWSPIGLQ | < -0.25
58 | HSTE | < -0.25
59 | HSVTTDKIREVTVADKRNCS | < -0.25
60 | HSWGIYVWVLHCTESR | < -0.25
61 | HSYLKDSTGSILCVLTYIRS | < -0.25
62 | HSYPILESGAPRHNRQSNRN | < -0.25
63 | HSYT | < -0.25
64 | HTALGYRNVVCHRRATYPPS | < -0.25
65 | HTASQVLEPPCVTSKRSVAW | < -0.25
66 | HTCPHLIDGSVEGVNTLARP | < -0.25
67 | HTDGSTS | < -0.25
68 | HTENKSTAVRPVVAGGQLHK | < -0.25
69 | HTFHVQRRSVGTIGPTTTGS | < -0.25
70 | HTGITETCGSRWIPWISAHR | < -0.25
71 | HTLANDLFGATLVCPKVPAS | < -0.25
72 | HTPRCD | < -0.25

Row | Substance | growth estimate
73 | HTQCLHRHRNRLLSRAVPFF | < -0.25
74 | HTREKMPSPAGLAPVLFCIV | < -0.25
75 | HTSLDSYAKPFSLFIRRAFP | < -0.25
76 | HTSRCHRRSLFPKVQKYEAN | < -0.25
77 | HTSRRLAIYALGGSLGALSL | < -0.25
78 | HTSRYGSRFGDVHEQQSLRA | < -0.25
79 | HTSYKMVLVRWIPRRAYIRE | < -0.25
80 | HTT | < -0.25
81 | HTVEVRHCVLSMNIIAGPPN | < -0.25
82 | HTYGPS | < -0.25
83 | HVALICLVQASSSGTASLLA | < -0.25
84 | HVARKECPDSEAWALMRKSV | < -0.25
85 | HVEAGGDAATGLYVSAGAWL | < -0.25
86 | HVERLL | < -0.25
87 | HVGRSGNDGVPKNPIGSRGA | < -0.25
88 | HVIIPY | < -0.25
89 | HVLGTMSGVEGCSSRLGYAS | < -0.25
90 | HVLIENTHELVVTREAGHLL | < -0.25
91 | HVLLALRLTVVVHQ | < -0.25
92 | HVLRVSEFPGATGRRQRPNP | < -0.25
93 | HVLT | < -0.25
94 | HVLVR | < -0.25
95 | HVQV | < -0.25
96 | HVRAPGCLLSARKSPQSTQA | < -0.25

Row | Substance | growth estimate
97 | HVRDKGKDR | < -0.25
98 | HVRLHLVFMKGSTSFIPNQL | < -0.25
99 | HVRNLFVKSVTAAMTV | < -0.25
100 | HVRNPIRAVSKTCSSVVT | < -0.25
101 | HVSTVGLRSSSRTGGGSAYA | < -0.25
102 | HVTASGLRFVVAAFTANRTA | < -0.25
103 | HVVFYEPKTPGRALLFKGCS | < -0.25
104 | HVVQVMNPPMVSSMRALRLG | < -0.25
105 | HVYNWAVPLPQA | < -0.25
106 | HVYTRMTQTIGGLVAECGRA | < -0.25
107 | HWDRWERLSPLWRRHGLNT | < -0.25
108 | HWGRITGTRVVEWRIYNLLN | < -0.25
109 | HWGV | < -0.25
110 | HWH | < -0.25
111 | HWHTSRGQKSLIGRKYLR | -0.247
112 | HWSINRVSSLKRLALRVGMG | < -0.25
113 | HYCLAGADGRSMYRAPLTRR | < -0.25
114 | HYLIN | < -0.25
115 | HYQRLANHAEGAA | < -0.25
116 | HYRAFYRETAIAIALVCSGS | < -0.25
117 | HYRHESDRNAGNPLQGATRY | < -0.25
118 | HYVWSPELP | < -0.25
119 | IADRKQDWDQGVGLESRRGP | < -0.25
120 | IADVWYDAGAGITSDSCHGF | -0.146

Row | Substance | growth estimate
121 | IAEKFWAS | < -0.25
122 | IAFE | -0.237
123 | IAGFFPQGP | < -0.25
124 | IAGHKKG | < -0.25
125 | IAGMNLSPYVCAVFTSGGRP | < -0.25
126 | IAGNDLAGLPSDPDWCVLRF | < -0.25
127 | IAGYLVSWEEPTATTTSVSM | < -0.25
128 | IAIGKRRRGGYVDRICPRIP | < -0.25
129 | IAKVLVKTRGDLTFQRSGSE | < -0.25
130 | IALV | < -0.25
131 | IALVTGS | -0.25
132 | IANRLRETVLP | < -0.25
133 | IANRSGTDSWRFGPSARAAN | < -0.25
134 | IAPVWDTDVISNLG | < -0.25
135 | IAQLMDLWTFYMPSSDPCRR | -0.183
136 | IARIGVSQNILEPPRC | < -0.25
137 | IARISVIERSNVIASLTCRP | < -0.25
138 | IARMHVAVFGASHTEK | < -0.25
139 | IARYLRLEEYISGTPPTMWT | < -0.25
140 | IASACMDPRILMEFRSMDTV | < -0.25
141 | IASDSDRTSH | < -0.25
142 | IASGPRVGRAPLGSIVGPRP | < -0.25
143 | IATSIVITFLVDQISGRVEG | < -0.253
144 | IAVFPLQVIGRQVGQPVC | < -0.25

Some values from the list:
Value of IANRLRETVLP under growth estimate: < -0.25
Value of IATSIVITFLVDQISGRVEG under growth estimate: < -0.253
Value of IASGPRVGRAPLGSIVGPRP under growth estimate: < -0.25
Value of IARISVIERSNVIASLTCRP under growth estimate: < -0.25

(listing goes on)

Row | Substance | growth estimate
145 | IAWASLCPGVRTSLGALTPL | < -0.25
146 | IAWASVESPGRN | < -0.25
147 | ICASMHLFAY | < -0.25
148 | ICCIRKYRAFLVKSRNIRAP | < -0.25
149 | ICDACTSISGHDH | < -0.25
150 | ICGHRQLRVGHLSMTT | < -0.25
151 | ICLRFINRCSLEK | < -0.25
152 | ICPGIGGGGSRQNRVNVMAS | < -0.25
153 | ICPLWVCPRKLFEHPDPGVR | < -0.25
154 | ICRGIRTLGGFVTSMSGTTT | < -0.25
155 | ICRIILKS | < -0.25
156 | ICRSLDRGYAFPKV | < -0.25
157 | ICVDRQV | < -0.25
158 | ICVRDRRYSDLAPLQ | < -0.25
159 | ICWGMICGFHAPTILSRNGH | < -0.25
160 | IDGCYPFRRILCQCGFCGQG | < -0.25
161 | IDHSRRARIPYYRAKDFS | < -0.25
162 | IDKCGL | < -0.25
163 | IDLD | < -0.25
164 | IDMICRSGDCY | < -0.25
165 | IDPFRWTRGIKAATVVTGCR | < -0.25
166 | IDRLIISLLGQYWLRRLFWC | < -0.25
167 | IDRS | < -0.25
168 | IDRTPWPNVAGPRPPRCVYQ | < -0.25

Row | Substance | growth estimate
169 | IDVKLGVIRVREARFCPRMS | < -0.25
170 | IDYQPKVVTME | < -0.25
171 | IEAPVRLPTRAIYESGCARG | < -0.25
172 | IEGNETCVAGYGAEDRSWLP | < -0.25
173 | IEIFK | < -0.25
174 | IEISHPACAENGAGPAWPVP | < -0.25
175 | IELGGPV | < -0.25
176 | IER | < -0.25
177 | IERIMLQAGYDRNHERTLTP | < -0.25
178 | IERRKRLVRSAGRLRIVIWL | < -0.25
179 | IERWGRAASRW | < -0.25
180 | IESDCMGAMEH | < -0.25
181 | IESGSHILA | < -0.25
182 | IEYLCLDAQS | < -0.25
183 | IFAGRSPVR | < -0.25
184 | IFFSTAIAKSKVQRSIK | < -0.25
185 | IFIAAHLCIWWVVSDQRPMG | < -0.25
186 | IFKLWVSSGVILYFSRR | < -0.25
